Literature values, collected in article PMC5962642, “Dynamic imaging of adaptive stress response pathway activation for prediction of drug induced liver injury” (Archives of Toxicology, 2018).

Experiments:
[1] = ref Chen et al. [2016], cited from earlier work; for DILI con. (DILI-concern labeling): FDA DILI labeling; for Hepa. (hepatotoxicity class): FDA labeling in eight classes of hepatotoxicity
[2] = C-max obtained from FDA or literature; ref per compound (FDA, Dailymed, Xu, O’Brien, Khetani, Regenthal, Gustafsson, Dawson, Ogutu, Patel, Schmidt, Ravic, Keisu, Hu, Wagner); cited from earlier work

CCCCc1oc2ccccc2c1C(=O)c1cc(I)c(OCCN(CC)CC)c(I)c1 [Amiodarone]
DILI con. (DILI-concern labeling) [1]: Most-DC
Hepa. (hepatotoxicity class) [1]: 8

O=C(O)c1cn(C2CC2)c2cc(N3CCNCC3)c(F)cc2c1=O [Ciprofloxacin]
Cmax [2]: 6.58 µM

NS(=O)(=O)c1cc(C(=O)O)c(NCc2ccco2)cc1Cl [Furosemide]
Cmax [2]: 3.29 µM

COc1ccc2cc([C@H](C)C(=O)O)ccc2c1 [Naproxen]
DILI con. (DILI-concern labeling) [1]: Less-DC
Hepa. (hepatotoxicity class) [1]: 3
